Assay results taken from the supplement of paper PMC7661543.
Differences between knockout arms are mostly noise.

System: MDA-MB-231
Test: relative cell number vs DMSO control (72 h) (% of DMSO); higher = less growth inhibition (more cells)
Protocol: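 QMAP-Seq: a pool of 5 breast cancer cell lines (ZR-75-1, SKBR3, HCC-38, MDA-MB-231, BT-20), each carrying 12 doxycycline-inducible Cas9 sgRNA perturbations (11 knockouts plus non-targeting sgNT), was treated with compounds for 72 h at four 10-fold doses (10 nM-10 uM or 1 nM-1 uM range). Barcodes were amplified and sequenced, and cell number was interpolated from 293T spike-in standard curves. The result is expressed as % of the median of DMSO wells. Two biological replicates.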

CN(Cc1cnc2nc(N)nc(N)c2n1)c1ccc(C(=O)N[C@@H](CCC(=O)O)C(=O)O)cc1 [Methotrexate]
Conditions | relative cell number
sgRNA knockout: sgATF3, 10 nM | 96.8
sgRNA knockout: sgATF3, 100 nM | 100
sgRNA knockout: sgATF3, 1000 nM | 79.9
sgRNA knockout: sgATF3, 10000 nM | 33.7
sgRNA knockout: sgATF4, 10 nM | 104
sgRNA knockout: sgATF4, 100 nM | 104
sgRNA knockout: sgATF4, 1000 nM | 98
sgRNA knockout: sgATF4, 10000 nM | 39.7
sgRNA knockout: sgATF6, 10 nM | 112
sgRNA knockout: sgATF6, 100 nM | 113.4
sgRNA knockout: sgATF6, 1000 nM | 81.4
sgRNA knockout: sgATF6, 10000 nM | 32
sgRNA knockout: sgATG7, 10 nM | 112
sgRNA knockout: sgATG7, 100 nM | 90.5
sgRNA knockout: sgATG7, 1000 nM | 93.1
sgRNA knockout: sgATG7, 10000 nM | 37.6
sgRNA knockout: sgERN1, 10 nM | 103
sgRNA knockout: sgERN1, 100 nM | 89.4
sgRNA knockout: sgERN1, 1000 nM | 77.3
sgRNA knockout: sgERN1, 10000 nM | 31.1
sgRNA knockout: sgHSF1, 10 nM | 128
sgRNA knockout: sgHSF1, 100 nM | 78.3
sgRNA knockout: sgHSF1, 1000 nM | 66.9
sgRNA knockout: sgHSF1, 10000 nM | 37.6
sgRNA knockout: sgHSF2, 10 nM | 92
sgRNA knockout: sgHSF2, 100 nM | 80.9
sgRNA knockout: sgHSF2, 1000 nM | 75.5
sgRNA knockout: sgHSF2, 10000 nM | 38.4
sgRNA knockout: sgKEAP1, 10 nM | 106
sgRNA knockout: sgKEAP1, 100 nM | 112
sgRNA knockout: sgKEAP1, 1000 nM | 67.7
sgRNA knockout: sgKEAP1, 10000 nM | 33.1
sgRNA knockout: sgNFE2L2, 10 nM | 84
sgRNA knockout: sgNFE2L2, 100 nM | 80.8
sgRNA knockout: sgNFE2L2, 1000 nM | 79.7
sgRNA knockout: sgNFE2L2, 10000 nM | 35.7
sgRNA knockout: sgSLC35F2, 10 nM | 85.3
sgRNA knockout: sgSLC35F2, 100 nM | 93
sgRNA knockout: sgSLC35F2, 1000 nM | 93.6
sgRNA knockout: sgSLC35F2, 10000 nM | 29.7
sgRNA knockout: sgXBP1, 10 nM | 86.3
sgRNA knockout: sgXBP1, 100 nM | 93.5
sgRNA knockout: sgXBP1, 1000 nM | 87.1
sgRNA knockout: sgXBP1, 10000 nM | 38.7

CC1(C)CCC(c2ccc(Cl)cc2)=C(CN2CCN(c3ccc(C(=O)NS(=O)(=O)c4ccc(N[C@H](CCN5CCOCC5)CSc5ccccc5)c(S(=O)(=O)C(F)(F)F)c4)cc3)CC2)C1 [Navitoclax]
Conditions | relative cell number
sgRNA knockout: sgATF3, 10 nM | 105
sgRNA knockout: sgATF3, 100 nM | 108
sgRNA knockout: sgATF3, 1000 nM | 91.1
sgRNA knockout: sgATF3, 10000 nM | 42.7
sgRNA knockout: sgATF4, 10 nM | 85.1
sgRNA knockout: sgATF4, 100 nM | 124
sgRNA knockout: sgATF4, 1000 nM | 83
sgRNA knockout: sgATF4, 10000 nM | 39.9
sgRNA knockout: sgATF6, 10 nM | 109
sgRNA knockout: sgATF6, 100 nM | 122
sgRNA knockout: sgATF6, 1000 nM | 68.7
sgRNA knockout: sgATF6, 10000 nM | 40.5
sgRNA knockout: sgATG7, 10 nM | 105
sgRNA knockout: sgATG7, 100 nM | 97.7
sgRNA knockout: sgATG7, 1000 nM | 69.1
sgRNA knockout: sgATG7, 10000 nM | 37.4
sgRNA knockout: sgERN1, 10 nM | 92.3
sgRNA knockout: sgERN1, 100 nM | 105
sgRNA knockout: sgERN1, 1000 nM | 101
sgRNA knockout: sgERN1, 10000 nM | 32.7
sgRNA knockout: sgHSF1, 10 nM | 96
sgRNA knockout: sgHSF1, 100 nM | 98.3
sgRNA knockout: sgHSF1, 1000 nM | 97.2
sgRNA knockout: sgHSF1, 10000 nM | 57.8
sgRNA knockout: sgHSF2, 10 nM | 106
sgRNA knockout: sgHSF2, 100 nM | 121
sgRNA knockout: sgHSF2, 1000 nM | 70.4
sgRNA knockout: sgHSF2, 10000 nM | 51.4
sgRNA knockout: sgKEAP1, 10 nM | 102
sgRNA knockout: sgKEAP1, 100 nM | 121
sgRNA knockout: sgKEAP1, 1000 nM | 84.8
sgRNA knockout: sgKEAP1, 10000 nM | 54.3
sgRNA knockout: sgNFE2L2, 10 nM | 106
sgRNA knockout: sgNFE2L2, 100 nM | 79.334
sgRNA knockout: sgNFE2L2, 1000 nM | 93.8
sgRNA knockout: sgNFE2L2, 10000 nM | 39.5
sgRNA knockout: sgSLC35F2, 10 nM | 109
sgRNA knockout: sgSLC35F2, 100 nM | 120
sgRNA knockout: sgSLC35F2, 1000 nM | 72.9
sgRNA knockout: sgSLC35F2, 10000 nM | 64.4
sgRNA knockout: sgXBP1, 10 nM | 103
sgRNA knockout: sgXBP1, 100 nM | 96.5
sgRNA knockout: sgXBP1, 1000 nM | 75.5
sgRNA knockout: sgXBP1, 10000 nM | 40.8

COc1nc(N)nc2c1ncn2[C@@H]1O[C@H](CO)[C@@H](O)[C@@H]1O [Nelarabine]
Conditions | relative cell number
sgRNA knockout: sgATF3, 10 nM | 119
sgRNA knockout: sgATF3, 100 nM | 99.1
sgRNA knockout: sgATF3, 1000 nM | 89.1
sgRNA knockout: sgATF3, 10000 nM | 98
sgRNA knockout: sgATF4, 10 nM | 102
sgRNA knockout: sgATF4, 100 nM | 102
sgRNA knockout: sgATF4, 1000 nM | 109
sgRNA knockout: sgATF4, 10000 nM | 87.4
sgRNA knockout: sgATF6, 10 nM | 83.1
sgRNA knockout: sgATF6, 100 nM | 92.8
sgRNA knockout: sgATF6, 1000 nM | 118
sgRNA knockout: sgATF6, 10000 nM | 88.1
sgRNA knockout: sgATG7, 10 nM | 87.1
sgRNA knockout: sgATG7, 100 nM | 108
sgRNA knockout: sgATG7, 1000 nM | 99.4
sgRNA knockout: sgATG7, 10000 nM | 86
sgRNA knockout: sgERN1, 10 nM | 117
sgRNA knockout: sgERN1, 100 nM | 97
sgRNA knockout: sgERN1, 1000 nM | 92.3
sgRNA knockout: sgERN1, 10000 nM | 66.5
sgRNA knockout: sgHSF1, 10 nM | 85.7
sgRNA knockout: sgHSF1, 100 nM | 84.2
sgRNA knockout: sgHSF1, 1000 nM | 95.4
sgRNA knockout: sgHSF1, 10000 nM | 84.6
sgRNA knockout: sgHSF2, 10 nM | 95
sgRNA knockout: sgHSF2, 100 nM | 103
sgRNA knockout: sgHSF2, 1000 nM | 83.1
sgRNA knockout: sgHSF2, 10000 nM | 87.2
sgRNA knockout: sgKEAP1, 10 nM | 87.33
sgRNA knockout: sgKEAP1, 100 nM | 69.9
sgRNA knockout: sgKEAP1, 1000 nM | 101
sgRNA knockout: sgKEAP1, 10000 nM | 74.8
sgRNA knockout: sgNFE2L2, 10 nM | 103
sgRNA knockout: sgNFE2L2, 100 nM | 103
sgRNA knockout: sgNFE2L2, 1000 nM | 108
sgRNA knockout: sgNFE2L2, 10000 nM | 116
sgRNA knockout: sgSLC35F2, 10 nM | 106
sgRNA knockout: sgSLC35F2, 100 nM | 100
sgRNA knockout: sgSLC35F2, 1000 nM | 89
sgRNA knockout: sgSLC35F2, 10000 nM | 89.3
sgRNA knockout: sgXBP1, 10 nM | 94.7
sgRNA knockout: sgXBP1, 100 nM | 96
sgRNA knockout: sgXBP1, 1000 nM | 85
sgRNA knockout: sgXBP1, 10000 nM | 78.2
